Laboratory results: publication PMC12335500
No constants are given. Whether binding was seen depends on the method and setting. Binding seen in cells or lysates may run through a third protein. Some binding calls cover weakened binding; strength is not graded here. For some assays here: Tags and fused reporters may be left off the sequences shown.

Chains of the proteins cited; added tags and fusions are not shown.
UniProt P67809: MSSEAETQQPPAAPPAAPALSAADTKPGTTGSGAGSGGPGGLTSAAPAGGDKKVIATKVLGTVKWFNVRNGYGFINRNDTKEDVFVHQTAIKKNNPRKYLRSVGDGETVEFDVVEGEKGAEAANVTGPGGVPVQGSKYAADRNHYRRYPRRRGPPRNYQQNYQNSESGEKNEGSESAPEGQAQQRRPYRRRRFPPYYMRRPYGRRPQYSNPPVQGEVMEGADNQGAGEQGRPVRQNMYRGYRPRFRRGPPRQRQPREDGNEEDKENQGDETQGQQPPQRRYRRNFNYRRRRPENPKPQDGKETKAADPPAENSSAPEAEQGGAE

Key:
[1] = molecular target: T1, EPS8L2 (endogenous, HCT116 cells) (human (endogenous in HCT116)) (UniProt Q9H6S3); experiment: co-IP; endogenous EPS8L2 and endogenous YBX1 in HCT116 cells; RIPA lysate, antibody overnight at 4 °C, Protein A/G agarose beads
T1 sequence: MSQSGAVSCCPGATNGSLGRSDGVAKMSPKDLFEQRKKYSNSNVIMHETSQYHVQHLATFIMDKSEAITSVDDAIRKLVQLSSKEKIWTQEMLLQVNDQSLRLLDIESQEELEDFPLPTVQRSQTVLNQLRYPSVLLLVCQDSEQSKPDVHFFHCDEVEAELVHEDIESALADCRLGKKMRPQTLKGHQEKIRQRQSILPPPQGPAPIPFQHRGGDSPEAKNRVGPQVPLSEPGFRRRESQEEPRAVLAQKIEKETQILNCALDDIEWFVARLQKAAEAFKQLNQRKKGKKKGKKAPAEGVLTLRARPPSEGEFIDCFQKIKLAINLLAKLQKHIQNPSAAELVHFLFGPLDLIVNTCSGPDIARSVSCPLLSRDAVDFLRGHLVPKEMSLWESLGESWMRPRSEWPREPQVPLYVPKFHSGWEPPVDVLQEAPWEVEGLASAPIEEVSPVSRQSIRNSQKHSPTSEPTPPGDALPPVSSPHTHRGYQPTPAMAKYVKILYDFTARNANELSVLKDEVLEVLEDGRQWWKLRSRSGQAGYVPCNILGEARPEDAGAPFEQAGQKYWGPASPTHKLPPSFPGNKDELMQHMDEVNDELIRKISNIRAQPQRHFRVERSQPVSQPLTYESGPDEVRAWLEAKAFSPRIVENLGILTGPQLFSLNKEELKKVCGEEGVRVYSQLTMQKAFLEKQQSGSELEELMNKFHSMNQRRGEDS

[2] = molecular target: T2, EPS8L2 with a C-terminal Flag tag (exogenous, in HEK293T cells) (human) (UniProt Q9H6S3); experiment: co-IP; exogenous EPS8L2 and exogenous YBX1 in HEK293T cells; RIPA lysate, antibody overnight at 4 °C, Protein A/G agarose beads
T2 sequence: T1 sequence

Substance	binding [1]	binding [2]
YBX1 (endogenous, HCT116 and SW480 cells) (from UniProt P67809 1-324)	binds	
YBX1 with a C-terminal His tag (exogenous, in HEK293T cells) (from UniProt P67809 1-324)		binds
